From PubChem BioAssay AID493014 (National Center for Advancing Translational Sciences (NCATS), 2011)
Among all 340,000 compounds or so, about 170 (0.05%) were called active. This list was built around the results that the source calls inconclusive (neither active nor inactive); the mix of calls is not that of the screen. Calls come from the whole dose curve; as a rule, active = well fitted inhibition curve with a large enough effect in the signal ratio, with a control signal flat (not every such curve was filed as active); inconclusive = small, poorly fitted or top-dose-only effect, or effect the other way, or a change in a side signal; inactive = flat fitted curve, though single readings scatter; the % refers to the signal ratio. Potencies of inconclusive entries are doubtful fits and often do not repeat.

experiment: qHTS Assay to Find Inhibitors of Chronic Active B-Cell Receptor Signaling; details: ABC-DLBCL IkBa-CBG/CBR reporter, luminescence ratio (green luciferase fused to IkBa over red control in TMD8 lymphoma cells), 4 h; activity change, negative = inhibition: at 46.1 µM (top of the series) unless noted;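 for activity change, negative = inhibition: plate controls were basal doxycycline-induced cells for no effect and cells given 10 µM MG132 for full effect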
Procedure, shortened: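 Cell line TMD8 (human ABC DLBCL), stably expressing tet-inducible CBG68-IkBa fusion and CBR; IMDM/0.5% FBS; cpd up to 46 uM; dox induction, 4 h, 37C/5% CO2; dual luminescence; green/red ratio; MG132 control.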
Potency is the fitted concentration of half-maximal effect.

Compound	activity change, negative = inhibition	Potency
CC[n+]1c(C)sc2sc3ccccc3c21	inconclusive: -20.8%	–
CC(=O)Nc1ccc(NC(=O)CSc2ccc(-c3cccs3)nn2)cc1	–	inconclusive: 5.01 µM [falling, single point]
CN1CCN(C(=O)CCCN2C(=O)/C(=C/c3cccc(Br)c3)SC2=S)CC1	–	inconclusive: 22.4 µM [falling, partial curve]
c1coc(CNCCCN2CCOCC2)c1	inconclusive: -20%	–
CC(Nc1nc(N2CCN(CCO)CC2)nc2ccccc12)c1ccccc1 (configuration not stated)	inconclusive: 1.37%	–
Cc1ccc(C)c(NC(=S)NCc2ccccc2)c1	inactive	–
O=C(Cc1ccccc1)Nc1nnc(-c2cccs2)s1	–	inconclusive: 4.61 µM [rising, partial curve, poor fit]
CCCCc1nc2ccccc2c(NC(=O)CN(CC)CC)c1CCC	–	inconclusive: 25.9 µM [rising, partial curve, poor fit]
CN1CCN(C(c2cccnc2)c2ccc3cccnc3c2O)CC1 (configuration not stated)	inactive	–
O=Nc1c(O)n(Cc2ccc(Cl)cc2)c2ccccc12	inconclusive: -23.3%	–
O=C(c1cc(-c2ccc(Br)cc2)on1)N1CCOCC1	–	inconclusive: 11.2 µM [falling, partial curve]
Cc1nc2nc(-c3cccnc3)[nH]n2c(=O)c1Cc1ccccc1	–	inconclusive: 1.84 µM [falling, partial curve, poor fit]
COc1cc(/C=N/NC(=O)Cc2nnc(NC(=O)c3ccccc3)s2)ccc1O	–	inconclusive: 15.8 µM [falling, partial curve, poor fit]
CCNc1nc(NCC)nc(ON=C(C)C)n1	inactive	–
CCn1cc(C(=O)N2CCc3ccccc32)c(=O)c2cc(S(=O)(=O)N3CCCC3)ccc21	inactive	–
Cc1ccc2cc(CCNC(=O)C(C)C)c(=O)[nH]c2c1	inconclusive: 0.883%	–
COc1cccc(N2CCN(C(=O)c3ccc4nc(N5CCCCC5)sc4c3)CC2)c1	–	inconclusive: 13 µM [falling, partial curve]
CCOc1ncccc1C(=O)Nc1cc(S(=O)(=O)N2CCCCC2)ccc1C	inconclusive: 6.01%	–
COc1ccc(C2C(C(=O)OCC(=O)Nc3ccc(C)cc3)CCC(=O)N2c2ccc(OC)cc2)cc1 (configuration not stated)	inconclusive: 11.4%	–
O=C(/C=C/c1ccc(Br)cc1)c1ccc(NC2=NCCCS2)cc1	inconclusive: 15.2%	–
Cc1cccnc1NC(=O)c1sc2ccccc2c1Cl	–	inconclusive: 12.6 µM [falling, partial curve]
CCn1nc(C)c(Br)c1-c1nc(CS(=O)(=O)c2ccsc2)no1	inconclusive: 19.3%	–
CC(C)(C)n1nnnc1C(c1cccnc1)N1CCN(c2cccc(C(F)(F)F)c2)CC1 (configuration not stated)	inconclusive: 14.2%	–
COc1ccccc1CNCC(=O)Nc1ccc(N(C)C)cc1	inconclusive: -15.7%	–
CCCCC#Cc1cncc(C(=O)N/N=C/c2cccc(OC)c2)c1	–	inconclusive: 10 µM [falling, partial curve]
Cn1c(SCC(=O)Nc2cccc(NC(=O)c3cccs3)c2)nnc1-c1ccncc1	–	inconclusive: 20 µM [falling, partial curve]

Two entries from above in a different format.

| Compound | activity change, negative = inhibition | Potency |
| --- | --- | --- |
| COc1cccc(N2CCN(C(=O)c3ccc4nc(N5CCCCC5)sc4c3)CC2)c1 | – | inconclusive: 13 µM [falling, partial curve] |
| CCOc1ncccc1C(=O)Nc1cc(S(=O)(=O)N2CCCCC2)ccc1C | inconclusive: 6.01% | – |

More records follow:

Compound	activity change, negative = inhibition	Potency
CCS(=O)(=O)N1Cc2ccccc2CC1C(=O)Nc1nc2ccccc2s1 (configuration not stated)	inconclusive: 428%	–
Cc1c(NC(=O)COC(=O)CCC(=O)c2ccc(Cl)cc2)c(=O)n(-c2ccccc2)n1C	inconclusive: -2.66%	–
Cc1cccc(CSc2nc3sc(C)c(C)c3c(=O)n2Cc2ccco2)c1	inconclusive: 8.55%	–
Clc1nc2c(ccc3ccccc32)[nH]1	inconclusive: 4.16%	–
O=C1C(c2c(O)[nH]c3ccccc23)=Nc2ccccc21	–	inconclusive: 0.112 µM [rising, full curve]
Cn1cccc1/C=N/N1CCN(Cc2ccccc2Cl)CC1	–	inconclusive: 3.55 µM [falling, partial curve, poor fit]
COc1ccccc1NC(=O)Nc1ccc(C(=O)N2CCCCC2)cc1	inconclusive: 11.4%	–
O=C(CSc1nc2ccccc2c(=O)n1-c1ccc(F)cc1)Nc1ccc(N2CCOCC2)cc1	–	inconclusive: 20.6 µM [falling, partial curve, poor fit]
Cc1ccc(S(=O)(=O)N(C)C)cc1NC(=O)COC(=O)/C=C/c1ccc2ccccc2n1	inconclusive: -5.26%	–
COc1cc(CC(=O)OCC(=O)NC2CCCCCC2)cc(OC)c1OC	inconclusive: -1.53%	–
CCc1ccc(S(=O)(=O)Nc2cc3c(cc2N2CCOCC2)n(C)c(=O)c(=O)n3C)cc1	inactive	–
COc1cccc(/C=C2\SC(=S)N(CCC(=O)N3CCCCC3)C2=O)c1	inactive	–
Nc1nc2ccccc2n1CCOc1ccc(F)cc1	inactive	–
O=C(CCc1nc2ccccc2c(=O)[nH]1)Nc1nnc(SCc2ccccc2F)s1	inconclusive: 6.45%	–
CCOC(=O)c1ccccc1NC(=O)COC(=O)c1c(CC)noc1C	–	inconclusive: 16.4 µM [falling, partial curve]
O=C(NCc1cccnc1)/C(=C\c1ccc(-c2ccc(Br)cc2)o1)S(=O)(=O)c1ccccc1	inconclusive: 2.87%	–
CCOc1ccc(-c2nc(-c3cccs3)c(CC(=O)O)s2)cc1OC	inconclusive: 7.53%	–
COc1ccccc1N(CC(=O)Nc1ccccc1C(=O)NC(C)C)S(C)(=O)=O	inconclusive: 1.65%	–
Nc1nc(SCc2cccc([N+](=O)[O-])c2)n[nH]1	inactive	–
Cn1cccc1C(=O)OCC(=O)NCCc1ccccc1	inconclusive: 1.29%	–
COc1cccc(/C=N/N2CCN(c3ccc(Cl)cc3)CC2)c1OC	inactive	–
Cc1ccc(C)c(NC(=S)N=Nc2c(O)n(C)c3ccc(S(=O)(=O)N4CCOCC4)cc23)c1	–	inconclusive: 20.6 µM [cytotoxic, partial curve]
c1csc(-c2nnc(Cc3cccc4ccccc34)o2)c1	inactive	–
Cc1ccc(C(=O)N2CCc3cc(CNC(=O)CCc4ccccc4)ccc32)cc1	inconclusive: 15.3%	–
O=C(c1ccccc1)N1CCN(C(=S)NCCc2ccccc2)CC1	inconclusive: 0.547%	–
O=C1c2ccccc2C(=O)N1CC1c2ccccc2CCN1C(=O)C1CCCCC1 (configuration not stated)	inconclusive: -23.6%	–

Fetched by structure from the entries so far (4):
Compound	activity change, negative = inhibition	Potency
Nc1nc(SCc2cccc([N+](=O)[O-])c2)n[nH]1	inactive	–
CCc1ccc(S(=O)(=O)Nc2cc3c(cc2N2CCOCC2)n(C)c(=O)c(=O)n3C)cc1	inactive	–
Cn1cccc1/C=N/N1CCN(Cc2ccccc2Cl)CC1	–	inconclusive: 3.55 µM [falling, partial curve, poor fit]
O=C(c1ccccc1)N1CCN(C(=S)NCCc2ccccc2)CC1	inconclusive: 0.547%	–

(cont.)

Compound	activity change, negative = inhibition	Potency
COc1ccc(C(=O)Nc2ccc(Cl)cn2)cc1Cl	–	inconclusive: 17.8 µM [falling, partial curve]
CCN(Cc1ccccc1)C(=O)Cn1cc(S(=O)(=O)NC)c(S(=O)(=O)NC)c1	inactive	–
CC(=O)c1cccc(NC(=S)NCCC2=CCCCC2)c1	inactive	–
Cc1ccccc1NC(=O)CCN1CCc2ccccc2C1	–	inconclusive: 10 µM [falling, partial curve, poor fit]
CC(C)N(C(=O)[C@H]1C[C@H](CC(=O)NCCC2=CCCCC2)C(=O)N2CCc3c([nH]c4ccc(Cl)cc34)[C@]12C)C(C)C	inactive	–
CC(O)Cc1cn([C@@H](CCCCNC(=O)OC(C)(C)C)C(=O)N2CCN(C(=O)OC(C)(C)C)CC2)nn1 (some centres not stated)	inconclusive: 21.1%	–
Cc1c(/C=N\NC(=O)c2cc3ccccc3o2)c2ccccc2n1C	–	inconclusive: 15.8 µM [falling, single point]
COc1ccc2c(c1)C(=O)N1[C@H]3c4cc(C)ccc4OC[C@@H]3[C@H](c3ccccc3)[C@]1(C)C(=O)N2	inconclusive: 11.8%	–
Nc1nc(CSc2ccc(Cl)cc2)nc(N2CCCCC2)n1	inconclusive: 4.21%	–
CCOC(=O)CSc1nnc(-c2ccccc2)o1	–	inconclusive: 9.2 µM [rising, partial curve]
O=C(Nc1ccccc1)Nc1nc(-c2ccccc2)cs1	–	inconclusive: 25.1 µM [falling, single point]
O=C(Nc1cccc(-c2cn3c(n2)SCC3)c1)c1ccc(Br)o1	–	inconclusive: 7.94 µM [falling, partial curve, poor fit]
COc1cc(OC)cc(C(=O)NC(C(=O)Nc2ccc3nc(C)sc3c2)C(C)C)c1 (configuration not stated)	inconclusive: -2%	–
Cc1ccc(NC(=O)Cn2nc(C(=O)O)c3ccccc3c2=O)c([N+](=O)[O-])c1	inconclusive: -4.35%	–
Cc1cc(C)c(C(N)=O)c(Nc2cccc(Cl)c2)n1	inconclusive: 18.4%	–
COc1ccccc1-n1c(CNC(=O)COc2ccccc2)n[nH]c1=S	–	inconclusive: 1.16 µM [falling, full curve]
COc1cccc(-c2noc(CCCC(=O)N3CCOCC3)n2)c1	–	inconclusive: 2 µM [rising, partial curve, poor fit]
CCn1c(O)c(N=Nc2ccc3ccccc3n2)c2ccccc21	–	inconclusive: 2.82 µM [rising, partial curve]
Cc1cc(C)c2c(=O)[nH]c(SCC(=O)Nc3ccc(N(C)C)cc3)nc2n1	inconclusive: 9.49%	–
Cc1ccccc1OCc1nc2ccccc2[nH]1	–	inconclusive: 25.1 µM [falling, single point]
CCc1cc2c(SCC(=O)N(C)C3CCS(=O)(=O)C3)ncnc2s1 (configuration not stated)	inconclusive: 1.53%	–
COc1ccccc1/C=C/C(=O)NCC(=O)N=Nc1c(O)[nH]c2ccccc12	–	inconclusive: 11.2 µM [falling, partial curve, poor fit]
COC(=O)C1CN(C(=O)COc2ccc(C)c(C)c2)c2ccccc2O1 (configuration not stated)	inconclusive: -13.6%	–
CC(C)CCSc1nnc(N)s1	inconclusive: 6.6%	–
Cc1cccc([C@@H]2[C@@H]3C(=O)N(Cc4ccccc4)C(=O)[C@@H]3[C@]3(C)C(=O)N(c4cccc(F)c4)C(=O)N23)c1	inconclusive: -0.659%	–
